PubChem BioAssay AID2685 (National Center for Advancing Translational Sciences (NCATS), 2010)
The other results are listed elsewhere or left out. These are further read-outs of the screen, such as a control signal, another cell line or another target. No call is given for them. The list favours compounds with an active or inconclusive main result. The note in brackets gives the kind of curve behind each potency; many fits are weak.

Assay: qHTS Assay for Lipid Storage Modulators in Drosophila S3 Cells;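 as to cell number change: cells counted by Cell Tracker Red CMTPX staining in the red channel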
Settings: BODIPY lipid droplet fluorescence, 18-24 h; for cell number change: measured here: cell count max response, cells fed with added oleic acid
In short: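 Drosophila S3 cells got compounds at several concentrations plus oleic acid (400 uM solution). Laser-scanning cytometry with 488 nm excitation read lipid droplets at 500-530 nm and cells at 575-640 nm. Percent activity was relative to 20 uM Triacsin C.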

[1] = measured here: lipid fluorescence (Fed channel) AC50, cells fed with added oleic acid
[2] = measured here: cell number channel AC50, cells fed with added oleic acid

Row | Compound | cell number change | AC50 [1] | AC50 [2]
1 | CN(C)S(=O)(=O)c1ccc(C(=O)NCC2(N3CCOCC3)CCCCC2)cc1 | 0.499% | – | –
2 | CNC(=O)c1csc(-c2cccs2)n1 | -7.56% | 32.6 µM [falling, single point] | –
3 | COC(=O)COc1ccc(S(=O)(=O)NCc2ccco2)cc1Cl | -40% | – | 20.6 µM [falling, partial curve]
4 | CCN(CC)CCCN(Cc1cc2cc(OC)ccc2[nH]c1=O)C(=O)Nc1ccc(F)cc1 | -14.8% | – | –
5 | COc1ccc(C(=O)c2c[nH]c(C(=O)N=CN(C)C)c2)cc1 | -18.4% | – | –
6 | CCOC(=O)c1cc(NC(=O)Nc2ccccn2)c(C)nc1C | -4.21% | 0.0082 µM [falling, full curve, poor fit] | –
7 | Cc1ccc(Oc2nc(-c3ccccc3)ncc2S(=O)(=O)c2ccc(C)cc2)cc1 | 36.9% | 2.59 µM [rising, partial curve, poor fit] | 0.082 µM [rising, partial curve, poor fit]
8 | CCc1ccc(NC(=O)CNC(=O)c2nn(-c3ccc(OC)cc3)c(=O)c3ccccc23)cc1 | – | 6.51 µM [rising, single point] | –
9 | COCCOC(=O)C1=C(C)Nc2ncnn2C1c1ccccc1 (stereo unspecified) | – | – | 0.58 µM [rising, single point]
10 | Cn1c(/C=C/c2ccc(Br)cc2)c([N+](=O)[O-])c(=O)n(C)c1=O | – | 6.51 µM [falling, single point] | –
11 | Cc1ccc(C)n1-c1nn(S(=O)(=O)c2ccccc2)c2cccc(F)c12 | 33.3% | 0.231 µM [rising, full curve, poor fit] | 0.092 µM [rising, full curve, poor fit]
12 | CCCCCCCCCn1c2c(c(=N)c3c1CCC3)CCCC2 | -66.6% | 1.46 µM [falling, full curve] | 2.06 µM [falling, full curve]
13 | O=S(=O)(NCC(Nc1ccccc1)c1ccccc1)c1ccc(Cl)cc1 (stereo unspecified) | -68.7% | 11.6 µM [falling, single point] | 29.1 µM [falling, single point]
14 | CCN(C(=O)CSc1nc(C)nc2sc(C)c(C)c12)c1ccc(F)cc1 | 12.4% | 0.326 µM [rising, partial curve, poor fit] | –
15 | Cc1c(S(=O)(=O)N2CCCCC2)c(=O)n(C)c(=O)n1C | -37.3% | 29.1 µM [falling, partial curve, poor fit] | –
16 | CC(N=C(NS(=O)(=O)c1ccc(Cl)cc1)c1ccccc1)C(=O)O (stereo unspecified) | -14.9% | 1.3 µM [falling, full curve, poor fit] | 0.184 µM [falling, full curve, poor fit]

3 structures from above, ordered by count of non-hydrogen atoms, ascending.
Row | Compound | cell number change | AC50 [1] | AC50 [2]
2 | CNC(=O)c1csc(-c2cccs2)n1 | -7.56% | 32.6 µM [falling, single point] | –
5 | COc1ccc(C(=O)c2c[nH]c(C(=O)N=CN(C)C)c2)cc1 | -18.4% | – | –
14 | CCN(C(=O)CSc1nc(C)nc2sc(C)c(C)c12)c1ccc(F)cc1 | 12.4% | 0.326 µM [rising, partial curve, poor fit] | –
